Data on one molecule can be found in article PMC7583906, “Functional Recovery of a GCDH Variant Associated to Severe Deflavinylation—Molecular Insights into Potential Beneficial Effects of Riboflavin Supplementation in Glutaric Aciduria-Type I Patients” (International Journal of Molecular Sciences, 2020).

Results are given in words; binding and its absence hold for the method and conditions named.

This test concerns the target GCDH-p.Val400Met clinical variant (human) (UniProt Q92947). Briefly: SEC; Superdex 200 10/300 GL, 10 mM HEPES pH 7.8, 150 mM NaCl, typically 0.5 mg applied; apoprotein (no FAD bound) as purified; Gaussian deconvolution of the profile; both purified.

B1: GCDH-p.Val400Met clinical variant (enzyme, human)
chain: EFDWQDPLVLEEQLTTDEILIRDTFRTYCQERLMPRILLANRNEVFHREIISEMGELGVLGPTIKGYGCAGVSSVAYGLLARELERVDSGYRSAMSVQSSLVMHPIYAYGSEEQRQKYLPQLAKGELLGCFGLTEPNSGSDPSSMETRAHYNSSNKSYTLNGTKTWITNSPMADLFVVWARCEDGCIRGFLLEKGMRGLSAPRIQGKFSLRASATGMIIMDGVEVPEENVLPGASSLGGPFGCLNNARYGIAWGVLGASEFCLHTARQYALDRMQFGVPLARNQLIQKKLADMLTEITLGLHACLQLGRLKDQDKAAPEMVSLLKRNNCGKALDIARQARDMLGGNGISDEYHMIRHAMNLEAVNTYEGTHDIHALILGRAITGIQAFTASK
notes: human glutaryl-CoA dehydrogenase (GCDH), disease variant p.Val400Met of glutaric aciduria type I, recombinant; The assays tell the states apart; also called holo GCDH-p.Val400Met; apo GCDH-p.Val400Met; source: E. coli BL21 (DE3), purified (HisTrap HP); holo form from soluble extract incubated overnight with excess FAD, apo form without the FAD incubation
On to B1, for which the binding result is on record as “no binding (condition: apo form, no FAD bound)”.
